This continues a long series; more values of the same kind are listed elsewhere.
Experiment: Pharmacokinetic evaluation of the release of naltrexone from Compound 2 in rats following a single intramuscular injection
Format: in vivo, Sprague-Dawley rats
Conditions: rat plasma
Description: Five male Sprague-Dawley rats were allowed to acclimate to the test facility for at least 2 days prior to study start. For dose administration of Compound 2, the rats were lightly anesthetized with isofluorane, the hind leg shaved and dosed intramuscularly with the formulation using a 21G needle. […] Serial whole blood samples were collected via sublingual route (˜150 μL) at 1, 8, and 24 hours post dose, and at 2, 4, 7, 10, 14, 17, 21, 24, 28, 35, 42, 49, 56, 63, 71, 78, 85, and 91 days post dose.
Blood samples were placed into K2EDTA blood collection tubes. After collection, blood samples were maintained chilled (on wet ice) and centrifuged (11,500 rpm for 2 minutes at 5 degrees C.) within 30 minutes to obtain plasma. Plasma was transferred into a single vial, 1.5 mL screw cap micro-centrifuge tube with inserts and stored at −80 degrees C. until analysis.
The formulation dosed was a crystalline suspension of Compound 2 (46 milligrams of Compound 2 dosed per animal), wherein the crystalline test article was characterized with a particle size distribution of Dv10=12.9 μm, Dv50=31.5 μm, and Dv90=63.1 μm (as measured via laser diffraction). The formulation was prepared the day before dosing. Details of the formulation dosed are described in Table D below.
Results of the above intramuscular rat study of Compound 2 are shown in Tables E and F. In particular, Table E reports the average blood plasma levels of naltrexone in rat (n=5) over 91 days following intramuscular administration.

Measured: Compound 2 conc.

O=C(Cc1ccc2cc(CC(=O)Oc3ccc4c5c3O[C@H]3C(=O)CC[C@@]6(O)[C@@H](C4)N(CC4CC4)CC[C@]536)ccc2c1)Oc1ccc2c3c1O[C@H]1C(=O)CC[C@@]4(O)[C@@H](C2)N(CC2CC2)CC[C@]314 [Compound 2, bis((4R,4aS,7aR,12bS)-3-(cyclopropylmethyl)-4a-hydroxy-7-oxo-2,3,4,4a,5,6,7,7a-octahydro-1H-4,12-methanobenzofuro[3,2-e]isoquinolin-9-yl) 2,2′-(naphthalene-2,6-diyl)diacetate]
<0.1 ng/mL: single i.m. dose of Compound 2, day 4, Rat 1 | single i.m. dose of Compound 2, day 4, Rat 2 | single i.m. dose of Compound 2, day 4, Rat 3 | single i.m. dose of Compound 2, day 4, Rat 4 | single i.m. dose of Compound 2, day 4, Rat 5

— patent US10799496B2, “Naphthylenyl compounds for long-acting injectable compositions and related methods” (priority 2018, dated 2020)
